We go through 107 sequences from PubChem BioAssay AID1508600 (Functional Genomics Laboratory (NCATS/FGL), 2020).

Screen size: about 53,000 sequences; about 3,700 (7%) were called active.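 The calls were made as follows: active = gene knockdowns whose robust z-score for IL-1 alpha signal is at least 2 or at most -2, so actives lie on both sides; inactive = the rest.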 The list shows a part of the results.

The nature of the test: Components of the Cytosolic LPS Sensing Pathway: Gene Identification via Genome-wide siRNA Screen.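 Also: robust z of the log signal after scaling to non-targeting control siRNA wells of the plate.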 The conditions noted are these: RAW264.7 macrophages, IL-1a HTRF, actives lie on both sides, screened at 100 nM (by protocol), cells primed 5 h with Pam3CSK4 first. In short, it runs like this:
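IL-1a HTRF of supernatants after 24 hour LipidA transfection of Pam3CSK4-primed (5 hours) RAW264.7 cells, 48h post-siRNA transfection (100 nM). Scores: percent of plate negative-control median, then log-based robust z-score.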
In the case of “GGGAUUCAGAUUCUAUCAGTT against Vmn2r-ps54”, the z-score was inactive: 0.17.

On to GGAAGAGGAAAUCACCACATT against Clec11a, for which the z-score is active: -2.16.

In the case of “CCUAAGUAGUGUUUGAACUTT against B530045E10Rik”, the z-score was inactive: -0.721.

For GGUCCAAUUAACCUAUCUUTT against Ppip5k2, the z-score is active: -2.06.

Consider CCCAUUUAGAAUUACGGCATT against Ppp2r2d, for which the z-score is inactive: 0.581.

With GGCGGAUAUCAAUACGAAATT against Rpl14, the z-score was inactive: 0.537.

With GCUGAUGGCAGAGGAAACATT against Olfr213, the z-score is inactive: -1.09.

In the case of GGUUUUCCUAAAGUCAACATT against Bfar, the z-score is active: -2.24.

For GGAGCUGGCUGACUUCAUUTT against Fcho1, the z-score is inactive: 0.825.

In the case of “GGAGCCUCAUGAAAAAUGCTT against 9930014A18Rik”, the z-score was inactive: -0.34.

For the sequence GGGUCAGCCAAAGGAAAAUTT against Nlrc3, the z-score is inactive: -0.193.

For the sequence CCAAUGCAAGUGCUACAGUTT against Zfp277, the z-score was active: -2.64.

Turning to GCCUCCAACUGAACAAAUUTT against Tnfrsf14, the z-score is inactive: 0.0618.

For GGAACCCUAUAUCUAGCAATT against Olfr114, the z-score was inactive: 1.56.

For the sequence CGAUAAUUUGGCUAAGUAUTT against Pikfyve, the z-score is inactive: 0.252.

Consider CCUCUAACAUACGUAAGUUTT against Necap1, for which the z-score was inactive: -1.05.

For the sequence GCCUAUCUAAUAUACAACGTT against Dnase2b, the z-score is inactive: -0.172.

For the sequence GGUUCCACUCUGAACUUAATT against Ces1c, the z-score is inactive: 1.55.

For GGGAAGAUGAGAUUGAAGCTT against Cdhr1, the z-score is inactive: -0.552.

GGCAGGUAAUUUUGAAUGUTT against Lemd2: the z-score is inactive: 1.45.

In the case of GCGAGCUGAACAAAUGGUCTT against Cyp24a1, the z-score is inactive: -1.28.

As for GGCUGACAAGGAAUUUGUATT against Cntln, the z-score was inactive: 0.26.

On to CCUUUCCAAACACCUAUAATT against Sox6, for which the z-score was inactive: -1.2.

Turning to GGAAAACGGACUAUUGUCCTT against Phf13, the z-score was inactive: 0.575.

As for GCGCACACCCUACUUGAUUTT against Pcdh20, the z-score is inactive: 1.08.

For the sequence GGUGAAUCAGACAUACUAUTT against Snupn, the z-score was active: 3.31.

Take GGAUUUACAUCCAUUGUUGTT against Otoa: the z-score was inactive: 0.153.

Consider GGUCAAGAAAAAGUUUCAGTT against Spag7, for which the z-score was inactive: -0.309.

For the sequence CGAUACUGAUCACUCCUAUTT against Uggt1, the z-score is inactive: -0.206.

On to GAGAGUCGCGCGCUUUUAATT against Nxph4, for which the z-score was inactive: 1.23.

On to GGUAUAUGGUGGGAACUUUTT against Bnipl, for which the z-score was active: 2.04.

As to GGGUGUGUUCUUAUCUCAUTT against Olfr921, the z-score was inactive: 1.52.

As to CCUAUUCCAUUGACAAUGATT against Tubb2a, the z-score is inactive: 0.286.

As for GCUAGACUUGGAGAAUUAATT against G3bp2, the z-score is inactive: 1.21.

As to GGAAUUCCAUUCCAGUCGCTT against H2al1m, the z-score was inactive: -0.886.

For the sequence CCUUCAACACCACGAAUCUTT against Npdc1, the z-score is inactive: 1.47.

For the sequence GGUCAAGUAUCAUUUUUGCTT against Negr1, the z-score was inactive: -0.631.

With GGAUGUGAUCCUACUGACATT against Tmem208, the z-score is inactive: 0.793.

On to GCUAGAACAGCAAAAAAAATT against Scgb3a1, for which the z-score is inactive: -0.512.

With GGUGUACUUUUUCCUAUUUTT against Olfr352, the z-score is inactive: -0.91.

With CCUGUAAAACAUUGUGAACTT against Fam189b, the z-score was inactive: 0.0797.

For GCUUAUGAGACUCAUUUAATT against Oser1, the z-score is inactive: 0.554.

Regarding CCAGAUCCCAUAGCAACCATT against Bpnt1, the z-score was inactive: -0.747.

With AACAUCCAAACCCAAGAGATT against Gm5941, the z-score was inactive: -0.0833.

In the case of CCAACAUCUGCGUGUUUGCTT against L3hypdh, the z-score is inactive: 0.36.

For GGCAAGAAACAGUCAUAAGTT against Eps8l3, the z-score was inactive: 0.404.

In the case of GGUAGUGCCAUAAUUUCUGTT against Nipal2, the z-score was inactive: -0.782.

As for GGUAGUAGAGAUGUUUGAUTT against Fam83g, the z-score is inactive: 1.37.

In the case of GGGAAUCCAAGGAGAGCAUTT against Arl13b, the z-score is inactive: 0.471.

Consider GGAACAAGUGUCUGACAGUTT against Emc3, for which the z-score was inactive: 1.82.

Regarding GGCGUAUUUUCCAACAGAGTT against Nxf3, the z-score was inactive: -0.551.

As for GGGAGAUCGAACAGAAUGGTT against Tmcc3, the z-score is inactive: -0.00508.

Take GGAAGGCAAAUCAAAAUCCTT against Zfp609: the z-score is inactive: 0.83.

Take GGUACUUACAGGUUGUCAUTT against Mageb1: the z-score is inactive: -0.256.

As for “GGUUAAAAACAACUGAAAGTT against 9630028B13Rik”, the z-score was inactive: -1.04.

Consider GGUUUUUCUCCUUGGUUAUTT against Krt79, for which the z-score is inactive: 0.716.

Regarding GGAUCAGUUGGCAAAGCUCTT against Ccdc39, the z-score was inactive: -0.651.

On to GCGAGCUAAUGUCACAUUCTT against Il17ra, for which the z-score was active: 3.74.

As for GGGUACACAAGAUGGACUGTT against Jun, the z-score was inactive: -1.25.

As for GGACACAGAUUAAUCAAGATT against Iftap, the z-score is inactive: 0.144.

In the case of GGUAUGGUUUCUAUAACAATT against Arsj, the z-score is inactive: 0.814.

Regarding CUGAAUCAGAUAAAGAGUUTT against H2ac18, the z-score is inactive: 0.485.

CCGCCAAGAUUCUGAACAUTT against Ifitm6: the z-score was inactive: 0.306.

Consider GGGUGUGAGGGAUUUCAUCTT against Ndufa2, for which the z-score is active: 2.22.

Turning to GGGUGUUGAAAGACUUUUATT against Tnks, the z-score was inactive: -0.122.

As to GCCAAUAAACGAAACUCUGTT against Reep2, the z-score is inactive: 0.733.

As to GGUAGAGGACCGCUUCUAUTT against Spa17, the z-score is inactive: 0.34.

GGAUCAUCUCCUCCAUUCUTT against Olfr393: the z-score was inactive: -0.57.

As to GGUUUUAUGAGAAUAGAACTT against Zdhhc21, the z-score is inactive: -1.02.

For GGAGCUAAACAACUUAAGATT against Cbwd1, the z-score is inactive: 0.461.

For GGAAGCGGGAGAUAGAGGATT against Xpo6, the z-score was inactive: -0.108.

Consider GGCUGGUGACCUACAUCUUTT against Rhbdd2, for which the z-score is inactive: 0.659.

Take GGGCAAUUGCUAUAUCUUATT against Cldn2: the z-score was inactive: -0.0256.

In the case of GGUGACAUGCUGAUUGUUGTT against Yod1, the z-score was inactive: 0.714.

For the sequence CGUUAUCUCAGUGGAUACUTT against Wdr36, the z-score was inactive: 1.98.

As to GGGAAAUAAAGGUUAUGCCTT against Rpp25l, the z-score was inactive: -1.11.

Take GGAUAGGAUGUAAAGAUCATT against Atp6v0c: the z-score is inactive: 0.545.

CCGAUAAGUAUUAUGGUGCTT against Fh1: the z-score is inactive: 0.162.

In the case of GGGCAGCUGGAUAGCUAAATT against Gimap5, the z-score is inactive: 0.339.

Consider GCGGGCUUGGAAGAAUCAUTT against Gle1, for which the z-score was inactive: -1.39.

Turning to CCUAUCUCCUAACUUAGUUTT against Vmn1r185, the z-score is inactive: 1.48.

Regarding GGUGAUCUAGAAACAACCCTT against Tmco5, the z-score is inactive: 0.243.

In the case of GGACUUCCAGAUCCAACCUTT against Robo4, the z-score was inactive: -0.867.

On to GGGAAAAAAAAGCAUCACUTT against Fbxl22, for which the z-score was inactive: -1.45.

For the sequence GCAAGUGCUCCAAUCUUGCTT against Ccl5, the z-score is inactive: -0.106.

CCUCAAGCCUCACAAUUCATT against Zfp160: the z-score is inactive: -0.0856.

For GGAAGAUCUGUACUACGGGTT against Bsnd, the z-score is inactive: 1.42.

As to CCAAAGAGUUAUCGUUCUATT against Tktl2, the z-score is inactive: 1.1.

As to GGUACAGAUUCUUGUGGACTT against Bace2, the z-score was inactive: 1.61.

Consider GGUGGAGAUCAAACCAGAGTT against Rps15, for which the z-score was inactive: 1.4.

As to GCUGACCUAUUCUGAUCCATT against Chchd4, the z-score is inactive: -0.223.

For the sequence CGGCAGCAAUCAUCAGUAGTT against Ppme1, the z-score was inactive: 0.482.

Regarding GGAACAGUCCUGUACACCCTT against Lilr4b, the z-score is inactive: -0.0608.

For the sequence GCAACUUGUCAGAUGUUUCTT against Trpm7, the z-score was active: 3.35.

On to CCAUCCUGGGACUUAUCUGTT against Olfr447, for which the z-score is inactive: 0.124.

Turning to GGAAGCCAUUGGGUUAAGCTT against Gpr141, the z-score is inactive: -0.117.

For GGACUCUACUAGGAAUAAATT against Col16a1, the z-score is inactive: -0.00624.

On to GGUUUUAAUUUCAACUGUCTT against Tpp1, for which the z-score was inactive: -0.468.

For the sequence GGAUACCAAUAGAACAAAGTT against Zfp775, the z-score is inactive: 0.554.

With GGAGCACUUAGAUGACUAUTT against Skil, the z-score was inactive: 1.39.

Regarding GGAAAGGGAAUACUUUGCUTT against Ube2q1, the z-score is inactive: -0.0217.

As for GCUCUUAAAACCCACCUGATT against Gzf1, the z-score is inactive: -1.97.

In the case of GGUGAGAAUGUGCUUCAAUTT against Egr2, the z-score is inactive: -0.0732.

Consider GGGACUUUUACCUCAAAUGTT against Trim30b, for which the z-score was inactive: 0.795.

For the sequence GGCACUGUUCUCAUCUGUGTT against Olfr736, the z-score is active: -2.41.

In the case of GGCCUGCACGAAUGAGUUUTT against Ube3a, the z-score was inactive: -0.0215.

On to GCUAGUGCUUAUUACGAUUTT against Fut4, for which the z-score is inactive: 1.29.
